Data: PMC4296509

Sequences of proteins named here, by UniProt entry; tags and fusion partners are left off. A change or cut given only in a name is not applied to a line headed by its entry.
UniProt Q9TXM1: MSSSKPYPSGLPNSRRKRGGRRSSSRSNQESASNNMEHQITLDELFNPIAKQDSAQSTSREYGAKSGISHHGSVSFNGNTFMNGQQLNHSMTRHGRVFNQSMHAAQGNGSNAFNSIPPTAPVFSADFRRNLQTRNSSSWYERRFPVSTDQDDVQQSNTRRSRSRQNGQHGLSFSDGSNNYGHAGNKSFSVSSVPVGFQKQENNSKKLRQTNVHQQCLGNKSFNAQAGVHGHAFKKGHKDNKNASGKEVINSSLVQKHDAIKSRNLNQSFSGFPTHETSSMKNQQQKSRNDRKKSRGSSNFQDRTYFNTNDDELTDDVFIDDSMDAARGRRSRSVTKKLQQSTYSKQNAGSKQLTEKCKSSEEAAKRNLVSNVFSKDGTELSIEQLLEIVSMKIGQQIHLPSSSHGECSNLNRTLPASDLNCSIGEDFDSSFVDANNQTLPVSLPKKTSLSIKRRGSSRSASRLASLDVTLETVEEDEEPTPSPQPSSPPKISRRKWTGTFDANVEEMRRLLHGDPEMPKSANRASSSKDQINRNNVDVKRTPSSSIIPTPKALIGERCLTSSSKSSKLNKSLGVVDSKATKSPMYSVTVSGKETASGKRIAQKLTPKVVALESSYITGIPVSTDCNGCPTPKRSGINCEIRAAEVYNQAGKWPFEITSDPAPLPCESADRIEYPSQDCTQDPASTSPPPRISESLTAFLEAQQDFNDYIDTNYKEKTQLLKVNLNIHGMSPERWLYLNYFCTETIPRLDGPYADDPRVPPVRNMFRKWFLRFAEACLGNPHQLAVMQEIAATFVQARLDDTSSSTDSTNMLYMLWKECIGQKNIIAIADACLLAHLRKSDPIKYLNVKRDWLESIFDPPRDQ
UniProt Q9TZK8: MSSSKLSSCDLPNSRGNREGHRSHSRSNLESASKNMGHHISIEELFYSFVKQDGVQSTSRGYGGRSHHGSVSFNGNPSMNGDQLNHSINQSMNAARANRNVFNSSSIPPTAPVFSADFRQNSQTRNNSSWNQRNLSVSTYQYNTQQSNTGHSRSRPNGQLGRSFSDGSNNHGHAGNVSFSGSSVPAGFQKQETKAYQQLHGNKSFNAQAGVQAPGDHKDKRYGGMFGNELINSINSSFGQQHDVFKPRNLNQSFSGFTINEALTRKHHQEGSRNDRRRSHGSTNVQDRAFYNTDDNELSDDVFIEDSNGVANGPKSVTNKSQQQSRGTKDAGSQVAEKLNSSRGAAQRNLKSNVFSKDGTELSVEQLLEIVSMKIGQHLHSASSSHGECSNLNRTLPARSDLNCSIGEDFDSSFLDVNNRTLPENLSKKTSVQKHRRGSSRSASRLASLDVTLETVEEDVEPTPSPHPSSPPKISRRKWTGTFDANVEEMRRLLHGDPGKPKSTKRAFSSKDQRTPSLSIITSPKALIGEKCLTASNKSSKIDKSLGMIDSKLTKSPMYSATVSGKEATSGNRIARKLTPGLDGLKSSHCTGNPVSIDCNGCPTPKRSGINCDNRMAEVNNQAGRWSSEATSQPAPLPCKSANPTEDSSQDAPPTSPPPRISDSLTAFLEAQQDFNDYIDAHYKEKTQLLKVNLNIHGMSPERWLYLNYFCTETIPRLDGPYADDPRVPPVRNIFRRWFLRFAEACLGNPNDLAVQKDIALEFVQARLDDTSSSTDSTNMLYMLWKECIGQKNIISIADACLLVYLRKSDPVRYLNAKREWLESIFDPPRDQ

Columns and labels:
[1] = molecular target: GST fusion of MEG-3 (C. elegans) (UniProt Q9TXM1); experiment: pull-down; GST fusions bound to GST beads and washed; incubated with MBP fusions (E. coli lysates) at 4°C for 1 hr in 50 mM Hepes pH 7.4, 1 mM EGTA, 1 mM MgCl2, 500 mM KCl, 10% glycerol, 0.05% NP-40; eluted with 10 mM reduced glutathione; Western; only the target purified
[2] = molecular target: GST fusion of MEG-4 (C. elegans) (UniProt Q9TZK8); experiment: as above

| binding [1] | binding [2] | Binder |
| --- | --- | --- |
| binds | binds | MBP fusion of PGL-1 (protein, UniProt Q9TZQ3 1-730) MEANKREIVDFGGLRSYFFPNLAHYITKNDEELFNNTSQANKLAAFVLGASKDAPGDEDILEMILPNDANAAVIAAGMDVCLLLGDKFRPKFDAAAEKLSGLGHAHDLVSVIDDDKKLGMLARKAKLKKTEDAKILQALLKVIAIDDAAEKFVELTELVSQLDLDFDVYVLTKILGLISEETSDEVDIIRDNVVNAFDSCKPLLKQLMLDGPKSEPADPFISLLMDPLEESVGKVVNHIAQLFEEASKNEGDESLVLRSQLGYQLFFLIVRSLADGKREVSKKILSGIPTSVRAEVFPGLQRSVYKSAVFLGNHIIQVLLGSKKSFEDWDVVGVAKDLESAWKRRAIAELIKKFQVSILEQCFDKPVPLIPQSPLNNDAVIDNVNKALQFALWLTEFYGSENETEALGELRFLDSTSKNLLVDSFKKFVQGINSKTHVTRIVESLEKCCLSDTPSGRKSNVQPSTSQQQDSAYTKEEMTTVHNTYSVNTKAQVLNGLSDTNSSGLLVDSKDSLSLQEISCDEVDSSTLLSSSRNIGEGVTVKAVDPVPEKVNDAQQQQTVNEIEMASDANQDTSSSASPEVAPSFSTDGWDSPTKSVALPPGMQQIDEEETTVADKDSTPQPQARAETAWGSGDATPMPLPAPTNQYKVSGFGEAKVAKGFGQFAPTSSAYGGGGGRGGYGGGDRGGRGGYGGDRGGRGGYGGGDRGGRGGYGGDRGRGGYGGRGGRGGF |
| no binding | no binding | MBP fusion of PAA-1, the scaffolding subunit of PP2A (protein, UniProt Q09543 1-590) MSVVEEATDDALYPIAVLIDELRNEDVTLRLNSIRKLSTIALALGVERTRNELIQFLTDTIYDEDEVLLVLAEQLGNFTPLVGGPDHVHCLLLPLENLATVEETVVRDKAVESLRKIADKHSSASLEEHFVPMLRRLATGDWFTSRTSACGLFSVVYPRVSPAIKSELKSMFRTLCRDDTPMVRRAAAAKLGEFAKVFEKTAVIEGLHSSLTDLHVDEQDSVRLLTVESAIAFGTLLDKANKKKLIEPILIELFDDKSWRVRYMVAEKLIEIQNVLGEDMDTTHLVNMYTNLLKDPEGEVRCAATQRLQEFALNLPEDKRQNIICNSLLNVAKELVTDGNQLVKSELAGVIMGLAPLIGKEQTVSELLPIYMQLLNDQTPEVRLNIISSLDKVNEVIGAAQLSTSLLPAIVGLAEDGKWRVRLAIVQFMPLLASQLGQEFFDEKLLPLCLNWLTDHVFSIREASTLIMKELTQKFGGQWASTNIVPKMQKLQKDTNYLQRMTCLFCLNTLSEAMTQEQILKEIMPIVKDLVEDDVPNVRFNAAKSLKRIGKNLTPSTLTSEVKPLLEKLGKDSDFDVRYFSEEAKNSLGL |

These are yes or no findings as the source states them, for the method shown. Binding seen in cells or lysates may run through a third protein. Binding can be weak; no strength is given. Sequences can lack the tags named with a protein.
